# Library screen at single concentrations

Source: ChEMBL document CHEMBL3988442, “University of Dundee, Small-Polar-MMV Screening Library” (2021).

Mtb glucose medium: 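Whole-cell growth test on Mycobacterium tuberculosis, read after 3 days in glucose-containing 7H9 medium; the read-out is not stated. Tested at 500 µM. Higher reads as more growth inhibition (inferred: compounds with an IC50 in retests scored well above the rest). About 18,000 compounds were tested under these conditions; 7.9% (about 1,400) showed 50% or more at least once.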
Mtb cholesterol medium: 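Whole-cell growth test on Mycobacterium tuberculosis, read after 4 days in a medium based on cholesterol and the lipid DPPC; the read-out is not stated. Concentration: 500 µM. Direction is inferred from retests: higher values go with more growth inhibition. Of about 18,000 compounds tested this way, about 900 (5%) reached 50% or more in at least one test.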

The filed quantity is “Percent Effect” (%). The record does not define 0% and 100%; most values in the screen are far below 50% and negative numbers occur (in some assays of this library far below -100). This is an unselected part of the compounds tested.

| # | compound | Mtb glucose medium | Mtb cholesterol medium |
|---|---|---|---|
| 1 | `C[C@H](N)c1cccc(OCCN(C)C)c1` | 6.218 | -1.697 |
| 2 | `CC(CC(=O)c1cccs1)NC(=O)Cn1cnnn1` (stereo not drawn) | 15.86 | 5.123 |
| 3 | `O=C(Cc1cccs1)N1CCNCC1` | 1.401 | -8.056 |
| 4 | `CC1CCCCN1CCNC(=O)c1ccoc1` (stereo not drawn) | -4.044 | -6.109 |
| 5 | `CCN(CC)C(C)CNC(=O)c1csc(NC(C)=O)n1` (stereo not drawn) | 3.792 | -0.6116 |
| 6 | `NC(=O)C(SCCN1CCOCC1)c1ccccc1` (stereo not drawn) | 4.659 | 13.57 |
| 7 | `COc1nccnc1CN1CCN(C)CC1C(C)C` (stereo not drawn) | 3.989 | 15 |
| 8 | `CC(N)c1nc(-c2ccccc2)c[nH]1` (stereo not drawn) | 31.62 | 0.4912 |
| 9 | `COCC1CCN(C(=O)CCn2nc(C)c(C)c2C)C1` (stereo not drawn) | -4.539 | -13.81 |
| 10 | `CN1C(=O)CC(Nc2ccc3c(c2)CCC3)C1=O` (stereo not drawn) | 5.999 | 8.34 |
| 11 | `CC(C)c1nc(CN(C)C(=O)c2ccc(=O)[nH]c2)no1` | 2.555 | -9.723 |
| 12 | `C=C(C)Cn1c(S(C)(=O)=O)nc2ccccc21` | 52.77 | 23.78 |
| 13 | `Nc1ccc(CN2CCOCC2)cn1` | -3.591 | -18.17 |
| 14 | `CN(CCCS(C)(=O)=O)Cc1cscn1` | -7.711 | 2.466 |
| 15 | `Cc1cc(CN)c(C)s1` | -0.1272 | -12.75 |
| 16 | `CCc1ncc(C(=O)NCCS(=O)(=O)CC(C)C)cn1` | 37.47 | 5.415 |
| 17 | `CN(C)S(=O)(=O)c1ccc(CS(=O)(=O)C2CCCC2)o1` | 0.1206 | 7.392 |
| 18 | `CC(C)Oc1cc(CNC2CC2)ccn1` | 18.55 | 10.67 |
| 19 | `CC(C)(C)N1CCC(NCc2ccccn2)CC1` | 16.29 | -2.015 |
| 20 | `C=C(Br)CN1CCN(CCNC(=O)C2CCC2)CC1` | 53.08 | 17.56 |
| 21 | `CC(C)CCN(CC(N)=O)C1CC1` | 9.473 | -5.048 |
| 22 | `CCc1ccccc1C(=O)N[C@@H](C)C(N)=O` | -5.381 | -10.89 |
| 23 | `CN(CC(C)(C)O)c1nccc2occc12` | 11.22 | 5.255 |
| 24 | `COCCCNC(=O)NCCOc1cccc(C)c1` | 32.67 | 15.25 |
| 25 | `CN1CCN(c2ncnc3ccsc23)CC1` | 19.44 | 23.58 |
| 26 | `Cc1noc(C2CCN(C(=O)c3ccoc3)CC2)n1` | 25.8 | 22.6 |
| 27 | `COC(=O)CCCC(=O)N(C)c1ccccc1F` | 38.02 | 31.84 |
| 28 | `CC(OCc1ccccc1)C(=O)NCc1c[nH]nn1` (stereo not drawn) | 12.78 | 10.77 |
| 29 | `COc1ccc(CCN)c(Cl)c1` | -8.05 | -11.76 |
| 30 | `CN(C(=O)c1ccc(F)c(Cl)c1)[C@H]1COC[C@@H]1O` | -5.24 | -7.285 |
| 31 | `Cc1cnc(CNC(=O)Cn2nc(C)c(C)c2C)cn1` | 21.32 | -0.836 |
| 32 | `COc1ccnc(NCc2ccc3c(c2)OCCO3)n1` | 14.74 | -35.76 |
| 33 | `CCC(=O)Nc1ccc(CC#N)cc1` | -19.33 | -13.21 |
| 34 | `CC(=O)NC(C(=O)Nc1ccc(N(C)C)nc1)C(C)C` (stereo not drawn) | 0.4217 | -0.3487 |
| 35 | `NCC(C(=O)N1CCC2(CCC2)C1)c1ccccc1` (stereo not drawn) | 32.08 | 11.32 |
| 36 | `OC(CN1CCSC2(CCOCC2)C1)CC(F)(F)F` (stereo not drawn) | 32.36 | 26.68 |
| 37 | `CCN1CCN(CCOc2ccc(C(C)=O)cc2)CC1` | -18.73 | -18.61 |
| 38 | `COc1c(CNCCNc2ncccn2)c(C)nn1C` | -8.176 | -0.2515 |
| 39 | `c1cc(C2CCCN2)n[nH]1` (stereo not drawn) | -1.059 | -9.707 |
| 40 | `CN(Cc1ccnn1C)C(=O)c1ccc(Cl)cc1` | 41.77 | 40.87 |
| 41 | `CCc1cccnc1C(C)=O` | -10.41 | -11.24 |
| 42 | `Cc1ccc(NC(=O)N2CCOC(CO)C2)cc1` (stereo not drawn) | 17.18 | -3.618 |
| 43 | `CNC(=O)CSc1nccn1Cc1ccco1` | 4.668 | -19.68 |
| 44 | `CC(c1cccs1)N(C)CC(=O)N1CCNC1=O` (stereo not drawn) | 10.67 | 7.775 |
| 45 | `CC1CCCCN1CC(=O)N1CCN(S(C)(=O)=O)CC1` (stereo not drawn) | -10.38 | -8.937 |

The first 6 entries again:

compound,Mtb glucose medium,Mtb cholesterol medium
C[C@H](N)c1cccc(OCCN(C)C)c1,6.218,-1.697
CC(CC(=O)c1cccs1)NC(=O)Cn1cnnn1 (stereo not drawn),15.86,5.123
O=C(Cc1cccs1)N1CCNCC1,1.401,-8.056
CC1CCCCN1CCNC(=O)c1ccoc1 (stereo not drawn),-4.044,-6.109
CCN(CC)C(C)CNC(=O)c1csc(NC(C)=O)n1 (stereo not drawn),3.792,-0.6116
NC(=O)C(SCCN1CCOCC1)c1ccccc1 (stereo not drawn),4.659,13.57